Results: PubChem BioAssay AID504834 (National Center for Advancing Translational Sciences (NCATS), 2011)
The whole screen tested about 320,000 compounds, of which about 22,000 (6.9%) were called active. The inconclusive results got no clear call from the source; some entries with a clear call stand among them for comparison. Calls follow the shape of the dose curve; as a rule, active = well fitted inhibition curve with a large enough effect; inconclusive = small, poorly fitted or top-dose-only effect, or another doubt; inactive = no such curve, though single readings can be large or run the other way. Where the call is inconclusive, the potency comes from a doubtful curve fit.

Test: Primary qHTS for delayed death inhibitors of the malarial parasite plastid, 96 hour incubation
Details: P. falciparum luciferase reporter growth; series mostly up to 28.7 µM
Procedure, shortened: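 P. falciparum expressing integrated firefly luciferase, in erythrocytes at 2% hematocrit, 0.05% parasitemia, incubated with compounds 96 h at 37 C, 5% CO2. Growth inhibition read as loss of luminescence; two-generation exposure targets delayed-death apicoplast inhibitors.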
Potency is read from the fitted curve at half-maximal effect.

SMILES | Potency
O=C(c1ccc2c3c(cccc13)CC2)C1CCCN(C(=O)c2ccc(=O)[nH]c2)C1 (configuration not stated) | inconclusive: 18.5 µM [inhibitor, single point]
O=C(Nc1ccc(N2CCN(C(=O)c3ccco3)CC2)cc1)c1ccccc1F | inconclusive: 7.38 µM [inhibitor, partial curve]
COc1ccc(OC)c(/C=N/NC(=S)NCCc2ccccc2)c1 | inconclusive: 14.7 µM [inhibitor, partial curve]
O=C(NC(=S)Nc1ccc(N2CCOCC2)c(Cl)c1)c1cncc(Br)c1 | inconclusive: 1.31 µM [inhibitor, partial curve, poor fit]
O=c1c(O)c(-c2cccs2)oc2ccccc12 | inactive
Cc1c2cnn(CC(=O)N3CCOCC3)c(=O)c2c(C)n1Cc1ccccc1F | inconclusive: 0.104 µM [inhibitor, full curve, poor fit]
O=C(NCC(=O)N(c1ccccc1)C(C(=O)NC1CCCCC1)c1cccnc1)c1ccco1 (configuration not stated) | inconclusive: 11.7 µM [inhibitor, single point]
Clc1cccc(/C(Cc2nc3ccccc3[nH]2)=N\Nc2ccccc2)c1 | inconclusive: 18.5 µM [inhibitor, single point]
CN(CCc1ccccn1)C(=O)Nc1ccc(Cl)cc1 | inactive
CCNc1nc(NC(C)C)nc(SCCOc2ccc(C)cc2)n1 | inconclusive: 0.738 µM [inhibitor, partial curve, poor fit]
O=C(O)C1CCCCC1C(=O)N1CCN(S(=O)(=O)c2ccc(F)cc2)CC1 (configuration not stated) | inactive
COc1ccc(CNC(=O)Cn2ccc(NC(=O)OCc3ccccc3)nc2=O)cc1 | inconclusive: 16.5 µM [inhibitor, single point]
CCOc1ccc(Br)cc1S(=O)(=O)NC1CCCC1 | active: 8.28 µM
Cc1nc(SCC(=O)NCCc2ccccc2)n[nH]1 | inconclusive: 7.38 µM [inhibitor, partial curve]
FC(F)(F)c1cccc(Cc2noc(CN3CCC(c4ccncc4)CC3)n2)c1 | inconclusive: 18.5 µM [inhibitor, single point]
Cc1cccc(S(=O)(=O)c2c(N)n(-c3ccccc3)c3nc4ccccc4nc23)c1 | active: 9.28 µM
Cc1ccc(C2CC2c2n[nH]c(=S)n2-c2ccc(Cl)cc2)cc1 (configuration not stated) | inconclusive: 11.7 µM [inhibitor, single point]
O=C(O)CN(CCc1ccccc1)S(=O)(=O)c1ccccc1 | inactive
CCN(CC)CCNc1nc2c(c(=O)[nH]c(=O)n2C)n1CCCc1ccccc1 | inconclusive: 16.5 µM [inhibitor, single point]
Cc1ccc(S(=O)(=O)Nc2ccc(S(=O)(=O)N3CCCC3)cc2)cc1 | inconclusive: 5.86 µM [inhibitor, partial curve, poor fit]
CC(=O)Nc1ccc(NC(=O)CSc2nc(C)nc3sc(C)c(C)c23)cc1 | inactive
CCC(C)[C@H](NC(=O)NC1CCCc2ccccc21)C(=O)O (some centres not stated) | inactive
O=Cc1c(N2CCCCC2)nc2ccccn2c1=O | inconclusive: 0.415 µM [inhibitor, partial curve, poor fit]
Oc1ccccc1CN1CCCC(N2CCc3ccccc3C2)C1 (configuration not stated) | active: 5.22 µM

Not a retest: 4 of the compounds above.
SMILES | Potency
O=C(O)C1CCCCC1C(=O)N1CCN(S(=O)(=O)c2ccc(F)cc2)CC1 (configuration not stated) | inactive
COc1ccc(CNC(=O)Cn2ccc(NC(=O)OCc3ccccc3)nc2=O)cc1 | inconclusive: 16.5 µM [inhibitor, single point]
CCOc1ccc(Br)cc1S(=O)(=O)NC1CCCC1 | active: 8.28 µM
Cc1nc(SCC(=O)NCCc2ccccc2)n[nH]1 | inconclusive: 7.38 µM [inhibitor, partial curve]

Continuation.

SMILES | Potency
Cc1cccc(NC(=O)CSc2nc3ccccc3nc2N2CC(C)OC(C)C2)c1 (configuration not stated) | active: 9.28 µM
Cc1ccc(C(=O)NCC(=O)OCC(=O)Nc2ccccc2[N+](=O)[O-])cc1 | inconclusive: 18.5 µM [inhibitor, single point]
O=C(Oc1ccc2c(c1)OCO2)c1ccncc1 | inconclusive: 14.7 µM [inhibitor, partial curve]
CCCCc1ccc(NC(=O)N2CCN(c3cc(C)nc4ccccc34)CC2)c(C)c1 | inconclusive: 10.4 µM [inhibitor, partial curve]
O=C(N/N=C\c1c[nH]c2ccccc12)c1ccc(O)cc1 | inactive
Cc1c(C(=O)Nc2ccc(Br)cc2)cnn1C | inactive
C[C@H](NC(=O)N1CCn2c1nc1ccccc12)C(=O)NCCc1ccccc1 | inactive
NNC(=O)c1cc2cc(Oc3ccccc3)ccc2[nH]1 | inconclusive: 7.38 µM [inhibitor, partial curve]
Nc1ccc(-c2sc(N)nc2-c2ccccc2)cc1 | inconclusive: 1.65 µM [inhibitor, single point]
COc1ccccc1N(C)S(=O)(=O)c1ccc(C(=O)Nc2ccncc2)cc1 | inconclusive: 11.7 µM [inhibitor, partial curve, poor fit]
CCn1c(C)c(C(C)=O)c(N2CCCCC2)nc1=S | active: 11.7 µM
CCOC(=O)/C(O)=C(\C#N)c1nc2ccccc2[nH]1 | inactive
CCOCCCn1c(=S)[nH]c2cc(C(=O)NCCc3ccc(OC)c(OC)c3)ccc2c1=O | inconclusive: 2.62 µM [inhibitor, single point]
O=C(CSc1nc2ccc(Cl)cc2o1)NCc1ccc2c(c1)OCO2 | inconclusive: 18.5 µM [inhibitor, single point]
O=C(COC(=O)c1ccccc1Cl)NCCC1=CCCCC1 | inactive
CCN(CC(=O)NCc1ccc(F)cc1)C(=O)Cc1ccc(OC)cc1 | inactive
Cc1noc(NS(=O)(=O)c2ccc(NC(=O)/C=C/c3ccc(C(C)C)cc3)cc2)c1C | active: 10.4 µM
Cc1c(C(=O)NC2CCCCC2)sc2ncnc(N3CCN(c4ccccc4)CC3)c12 | inconclusive: 13.1 µM [inhibitor, single point]
O=C(ONC1=NCCCCC1)c1c(F)cccc1F | inactive
CC(C)c1ccc(OCC(=O)N2CCCCCC2)c(Br)c1 | inactive
CCOC(=O)C1=C(CS(=O)(=O)c2ccc(C)cc2)NC(=O)NC1c1cc(OC)c(O)c(OC)c1 (configuration not stated) | inconclusive: 18.5 µM [inhibitor, partial curve, poor fit]
Cc1noc(C)c1CSCC(=O)N(CC(C)C)c1c(N)n(Cc2ccccc2)c(=O)[nH]c1=O | inactive
CC1=CC(C)(C)N2C(=O)C3(SCC(=O)N3c3ccc(F)cc3)c3cc(C)cc1c32 (configuration not stated) | active: 4.15 µM
Cc1ccc2oc(=O)n(CCCOc3ccccc3C)c2c1 | inactive

SMILES | Potency
CC(=O)c1cccc(NC(=O)c2ccc(N(Cc3ccccc3C)S(C)(=O)=O)cc2)c1 | inconclusive: 18.5 µM [inhibitor, single point]
CCN(CC)S(=O)(=O)c1ccc(Cl)c(NC(=O)COC(=O)/C=C/c2ccc(O)c(OC)c2)c1 | inactive
COc1ccc(OC)c(S(=O)(=O)Nc2ccccc2C(=O)O)c1 | inconclusive: 9.28 µM [inhibitor, partial curve]
Cc1nc2cc(Cl)ccc2n1-c1ccccc1 | inconclusive: 1.65 µM [inhibitor, full curve, poor fit]
Cc1ccccc1CNC(=O)C(=O)NCC1OCCCN1S(=O)(=O)c1ccc(F)cc1C (configuration not stated) | inconclusive: 11.7 µM [inhibitor, single point]
COc1ccccc1N=Nc1[nH]c2ccc(C)cc2c1O | inconclusive: 18.5 µM [inhibitor, single point]
O=C(Nc1ccc2cn[nH]c2c1)c1c(Cl)cccc1Cl | inactive
N#C/C(=N\Nc1ccccc1F)C(=N)N1CCCCC1 | inactive
CCN(c1ccccc1)S(=O)(=O)c1ccc(Cl)c(NC(=O)CN2CCCCCC2)c1 | inconclusive: 9.28 µM [inhibitor, partial curve, poor fit]
C/C(=C1/C(=O)N(c2ccc([N+](=O)[O-])cc2)N=C1c1ccccc1)N(C)C | inactive
Cc1ccc(-c2nc(CS(=O)(=O)CC(=O)NCCN3CCOCC3)c(C)o2)cc1 | inconclusive: 18.5 µM [inhibitor, single point]
CCOC(=O)COc1ccccc1/C=N\NC(=O)c1cc2c(ccc3ccccc32)o1 | inconclusive: 18.5 µM [inhibitor, single point]
CC(C)NC(=S)N(CCc1ccncc1)C(C)C | active: 1.31 µM
CCOc1ccc(Nc2nc(Cc3nnc(SCC(=O)NC4CCCC4)n3C)cs2)cc1 | inconclusive: 10.4 µM [inhibitor, partial curve, poor fit]
CCn1cc(/C=N\NC(=O)c2ccc3c(c2)c(C)c(C)n3Cc2ccccc2)c(C)n1 | active: 10.4 µM
CCCCNC(=O)C1CCC(CNS(=O)(=O)c2cccc3nsnc23)CC1 (configuration not stated) | inactive
COc1ccc(NC(=O)CN(C)C(=O)c2c(-c3c(F)cccc3Cl)noc2C)cc1 | inconclusive: 11.7 µM [inhibitor, single point]
CCn1c(SCc2c(Cl)cccc2Cl)nnc1-c1nn(-c2ccccc2)ccc1=O | inconclusive: 7.38 µM [inhibitor, partial curve, poor fit]
COC(=O)c1ccc(C(=O)OC)c(NC(=S)N2CCC(C)CC2)c1 | active: 7.38 µM
O=C1CSC(c2ccc([N+](=O)[O-])cc2)N1Cc1ccccc1 (configuration not stated) | inactive
Cc1cc(C)c2cc(C#N)c(NCCOC(=O)c3ccccc3C)nc2c1 | inconclusive: 0.147 µM [inhibitor, partial curve, poor fit]
COc1ccc2c(C(=O)c3ccc(C)cc3)n(CCC(N)=O)[n+]([O-])c2c1 | inconclusive: 0.0657 µM [inhibitor, full curve, poor fit]
Cc1c(O)ccc(C(=O)CN2CCN(c3ccc(F)cc3)CC2)c1O | inconclusive: 4.15 µM [inhibitor, partial curve, poor fit]
COc1ccccc1C(=O)N/C(=C\c1cn(S(=O)(=O)N(C)C)c2ccccc12)C(=O)NCCCN1CCOCC1 | inconclusive: 18.5 µM [inhibitor, single point]
